The record followed here is paper PMC6166629.

Protein sequences, listed by entry. Tags and fused reporters are not part of them. Residues count along the entry.
UniProt P25705, residues 44-553: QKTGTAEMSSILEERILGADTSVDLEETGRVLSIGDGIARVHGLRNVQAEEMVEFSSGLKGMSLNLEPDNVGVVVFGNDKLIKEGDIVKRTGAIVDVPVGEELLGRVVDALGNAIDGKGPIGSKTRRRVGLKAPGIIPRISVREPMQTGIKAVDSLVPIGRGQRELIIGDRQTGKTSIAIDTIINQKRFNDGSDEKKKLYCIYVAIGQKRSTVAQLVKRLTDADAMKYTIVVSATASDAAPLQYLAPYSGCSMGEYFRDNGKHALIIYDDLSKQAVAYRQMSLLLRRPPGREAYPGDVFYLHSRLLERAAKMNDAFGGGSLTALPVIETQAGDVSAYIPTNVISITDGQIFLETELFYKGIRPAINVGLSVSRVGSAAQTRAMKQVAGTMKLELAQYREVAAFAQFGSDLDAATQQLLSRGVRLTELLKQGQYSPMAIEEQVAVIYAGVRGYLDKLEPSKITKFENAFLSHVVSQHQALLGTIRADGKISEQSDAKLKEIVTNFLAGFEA

Results are given in words; binding and its absence hold for the method and conditions named. In cells and extracts the contact can be indirect. A yes stands for co-enrichment or nearness to the bait. Other partners may have been found.

The target of the experiment is T1, UPF0587 protein C1orf123 (human (endogenous in HeLa)) (UniProt Q9NWV4).
T1 sequence: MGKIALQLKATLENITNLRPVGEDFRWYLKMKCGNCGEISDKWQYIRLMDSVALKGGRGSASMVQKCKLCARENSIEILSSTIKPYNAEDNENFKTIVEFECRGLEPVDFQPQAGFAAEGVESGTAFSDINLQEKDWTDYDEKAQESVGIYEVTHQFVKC
Briefly: affinity purification with mass spectrometry; rabbit anti-C1ORF123 IgG (6 ug) with HeLa cell lysate, overnight 4 °C, protein A/G magnetic beads, binding buffer 0.025 M Tris, 0.15 M NaCl, 0.001 M EDTA, 1% NP40, 5% glycerol; elution with glycine pH 2; nanoLC-Orbitrap MS; hits had to be found both in this sample and in a second lysate with 60 ug purified rC1ORF123 added, and not in the rabbit IgG control.

On to “ATP synthase subunit alpha, mitochondria (from UniProt P25705 44-553)”, for which the binding entry was “binds”.
